# Source: the M2OR odorant receptor database
# Chains of the proteins cited; added tags and fusions are not shown. A line that says so, or that is headed by a name, gives the form on record, which may keep a tag or linker.
# OR2J3, as listed by the source: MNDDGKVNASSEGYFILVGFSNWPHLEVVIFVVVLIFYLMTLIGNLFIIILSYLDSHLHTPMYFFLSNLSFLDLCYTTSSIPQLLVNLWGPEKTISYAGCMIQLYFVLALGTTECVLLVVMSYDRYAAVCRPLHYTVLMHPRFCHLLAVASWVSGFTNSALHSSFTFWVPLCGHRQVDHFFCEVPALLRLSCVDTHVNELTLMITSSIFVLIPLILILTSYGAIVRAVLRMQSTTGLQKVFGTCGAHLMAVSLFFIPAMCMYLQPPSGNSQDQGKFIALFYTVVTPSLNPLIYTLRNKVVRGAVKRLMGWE
# OR2J2, as listed by the source: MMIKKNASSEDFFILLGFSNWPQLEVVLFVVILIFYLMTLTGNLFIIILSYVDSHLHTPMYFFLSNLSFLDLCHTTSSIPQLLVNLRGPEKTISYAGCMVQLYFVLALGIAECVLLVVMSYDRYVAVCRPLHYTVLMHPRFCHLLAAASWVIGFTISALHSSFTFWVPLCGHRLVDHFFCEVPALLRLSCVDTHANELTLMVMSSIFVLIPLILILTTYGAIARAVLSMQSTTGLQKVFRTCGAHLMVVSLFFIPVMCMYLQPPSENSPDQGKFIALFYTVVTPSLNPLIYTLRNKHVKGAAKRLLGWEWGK
# Positions count from the first letter of the chain named. The list shows a part of the results, in another mix than the full data. The calls were merged from several studies; some rest on single wells. Some of the results follow.
# Experiments:
# Details in all cases: stereoisomer not certain
# OR2H2 = tested on: T1, OR2H2
# T1 sequence (whole entry): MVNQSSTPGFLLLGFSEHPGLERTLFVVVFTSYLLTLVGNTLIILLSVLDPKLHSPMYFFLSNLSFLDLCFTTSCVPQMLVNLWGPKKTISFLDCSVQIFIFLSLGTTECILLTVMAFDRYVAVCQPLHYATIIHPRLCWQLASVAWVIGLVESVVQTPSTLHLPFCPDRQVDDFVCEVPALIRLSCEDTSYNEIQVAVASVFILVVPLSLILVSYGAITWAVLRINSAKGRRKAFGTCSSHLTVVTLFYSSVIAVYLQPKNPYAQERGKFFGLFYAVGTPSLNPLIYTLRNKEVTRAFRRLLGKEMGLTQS
# In short: (§1)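 Assay methods differ from source to source, frequently being transient luciferase assays in mammalian cell lines. For each receptor–molecule pair, the label responsive (active) applies when the original authors judged the measured signal statistically different from baseline, and non-responsive (inactive) applies otherwise.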
# OR2J1 = tested on: T2, OR2J1
# T2 sequence (whole entry): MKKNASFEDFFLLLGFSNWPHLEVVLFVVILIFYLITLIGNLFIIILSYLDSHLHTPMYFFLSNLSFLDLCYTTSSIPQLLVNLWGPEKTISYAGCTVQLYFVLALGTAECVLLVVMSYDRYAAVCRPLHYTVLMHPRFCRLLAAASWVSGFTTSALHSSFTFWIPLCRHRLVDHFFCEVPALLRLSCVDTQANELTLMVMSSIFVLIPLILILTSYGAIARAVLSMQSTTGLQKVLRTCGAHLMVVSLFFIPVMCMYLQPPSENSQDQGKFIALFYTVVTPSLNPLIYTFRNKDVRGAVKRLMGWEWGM
# In short: as §1
# OR2J2 (Homo sapiens) = target: T3, OR2J2 (Homo sapiens) (UniProt O76002)
# T3 sequence (whole entry): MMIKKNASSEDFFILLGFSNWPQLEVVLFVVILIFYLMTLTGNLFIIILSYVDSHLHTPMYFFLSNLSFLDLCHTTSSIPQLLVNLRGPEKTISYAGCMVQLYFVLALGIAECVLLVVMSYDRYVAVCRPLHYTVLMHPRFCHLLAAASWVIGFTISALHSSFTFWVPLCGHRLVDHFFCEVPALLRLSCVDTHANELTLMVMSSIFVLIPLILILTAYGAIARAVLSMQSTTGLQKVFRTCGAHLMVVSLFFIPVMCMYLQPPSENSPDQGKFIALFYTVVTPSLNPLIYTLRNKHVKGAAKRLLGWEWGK
# In short: as §1
# OR2J2 [1] = tested on: T4, OR2J2
# T4 sequence (whole entry): T3 sequence (whole entry) with A218T
# In short: as §1
# OR2J2 [2] = tested on: T5, OR2J2; remark: listed apart in the source
# T5 sequence (whole entry): T3 sequence (whole entry) with H74Y, A146V, A218T
# In short: as §1
# OR2J2 [3] = tested on: T6, OR2J2; remark: listed apart in the source
# T6 sequence (whole entry): T3 sequence (whole entry) with H74Y, A111T, A146V
# In short: as §1
# OR2J3 (Homo sapiens) = target: T7, OR2J3 (Homo sapiens) (UniProt O76001)
# T7 sequence (whole entry): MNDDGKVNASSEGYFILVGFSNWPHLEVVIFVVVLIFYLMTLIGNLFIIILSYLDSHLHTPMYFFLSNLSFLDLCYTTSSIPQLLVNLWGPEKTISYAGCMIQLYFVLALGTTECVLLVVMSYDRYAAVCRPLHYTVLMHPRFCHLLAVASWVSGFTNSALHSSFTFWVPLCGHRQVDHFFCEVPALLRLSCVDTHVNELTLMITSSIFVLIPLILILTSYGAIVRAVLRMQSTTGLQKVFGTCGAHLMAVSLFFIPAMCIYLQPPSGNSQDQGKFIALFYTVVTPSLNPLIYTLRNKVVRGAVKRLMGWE
# In short: as §1
# OR2K2 (Homo sapiens) = target: T8, OR2K2 (Homo sapiens) (UniProt Q8NGT1)
# T8 sequence (whole entry): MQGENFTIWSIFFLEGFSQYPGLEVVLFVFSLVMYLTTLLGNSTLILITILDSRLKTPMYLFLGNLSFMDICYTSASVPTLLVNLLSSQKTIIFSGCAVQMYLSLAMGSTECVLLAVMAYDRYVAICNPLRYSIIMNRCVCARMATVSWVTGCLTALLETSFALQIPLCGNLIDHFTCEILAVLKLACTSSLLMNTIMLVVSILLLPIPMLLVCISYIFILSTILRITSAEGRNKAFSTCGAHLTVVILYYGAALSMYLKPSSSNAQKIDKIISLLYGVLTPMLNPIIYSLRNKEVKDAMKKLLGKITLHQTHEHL
# In short: as §1
# OR2L13 (Homo sapiens) = target: T9, OR2L13 (Homo sapiens) (UniProt Q8N349)
# T9 sequence (whole entry): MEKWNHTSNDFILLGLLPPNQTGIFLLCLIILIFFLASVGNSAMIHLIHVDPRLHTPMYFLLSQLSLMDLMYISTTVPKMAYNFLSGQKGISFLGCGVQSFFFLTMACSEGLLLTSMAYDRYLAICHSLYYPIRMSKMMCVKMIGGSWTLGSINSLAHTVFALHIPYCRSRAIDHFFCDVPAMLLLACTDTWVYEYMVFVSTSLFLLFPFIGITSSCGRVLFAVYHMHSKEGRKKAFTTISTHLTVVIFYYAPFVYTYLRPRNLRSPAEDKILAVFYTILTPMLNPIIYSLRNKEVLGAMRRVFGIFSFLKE
# In short: as §1
# OR2L2 (Homo sapiens) = target: T10, OR2L2 (Homo sapiens) (UniProt Q8NH16)
# T10 sequence (whole entry): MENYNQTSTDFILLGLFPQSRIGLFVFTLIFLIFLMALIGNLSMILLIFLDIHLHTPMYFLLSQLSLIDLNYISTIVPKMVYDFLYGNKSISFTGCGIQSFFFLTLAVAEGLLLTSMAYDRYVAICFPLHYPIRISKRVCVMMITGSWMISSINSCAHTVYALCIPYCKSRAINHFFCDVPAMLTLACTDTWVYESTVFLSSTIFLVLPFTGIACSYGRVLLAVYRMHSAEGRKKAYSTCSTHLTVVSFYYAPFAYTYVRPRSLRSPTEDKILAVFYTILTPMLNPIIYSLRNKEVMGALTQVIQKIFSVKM
# In short: as §1
# OR2J3 [4] = tested on: T11, OR2J3
# T11 sequence (whole entry): T7 sequence (whole entry) with R226Q
# In short: as §1
# OR2J3 [5] = tested on: T12, OR2J3; remark: listed apart in the source
# T12 sequence (whole entry): T7 sequence (whole entry) with I261M
# In short: as §1
# OR2J3 [6] = tested on: OR2J3; remark: listed apart in the source
# In short: as §1
SMILES,odorant receptor agonist call (OR2H2),odorant receptor agonist call (OR2J1),odorant receptor agonist call (OR2J2 (Homo sapiens)),odorant receptor agonist call (OR2J2 [1]),odorant receptor agonist call (OR2J2 [2]),odorant receptor agonist call (OR2J2 [3]),odorant receptor agonist call (OR2J3 (Homo sapiens)),odorant receptor agonist call (OR2K2 (Homo sapiens)),odorant receptor agonist call (OR2L13 (Homo sapiens)),odorant receptor agonist call (OR2L2 (Homo sapiens)),odorant receptor agonist call (OR2J3 [4]),odorant receptor agonist call (OR2J3 [5]),odorant receptor agonist call (OR2J3 [6])
CCCCCCCOC(C)=O,inactive,inactive,inactive,inactive,inactive,inactive,active,inactive,inactive,inactive,,,
CC(=O)OCC=C(C)CCC=C(C)C,inactive,inactive,inactive,inactive,inactive,active,active,inactive,inactive,inactive,active,active,active
CC(C)(C)c1ccc(CCC=O)cc1,inactive,inactive,inactive,inactive,inactive,inactive,inactive,inactive,inactive,inactive,,,
CC(C)CCC(=O)O,inactive,inactive,active,inactive,inactive,inactive,inactive,inactive,inactive,inactive,,,
COc1cc(C)ccc1O,inactive,inactive,inactive,inactive,inactive,active,active,inactive,inactive,inactive,,,
COc1cc(C=O)ccc1O,inactive,inactive,inactive,inactive,active,active,inactive,inactive,inactive,inactive,,,
c1ccc(Oc2ccccc2)cc1,inactive,inactive,inactive,inactive,inactive,inactive,active,inactive,inactive,inactive,,,
CC(=O)c1ccccc1,inactive,inactive,inactive,inactive,active,active,,inactive,inactive,inactive,,,
C=C(C)C1CC=C(C)C(=O)C1 (stereo unspecified),,,inactive,,,,,,inactive,,,,
CC1COCc2cc3c(cc21)C(C)(C)C(C)C3(C)C (stereo unspecified),inactive,active,active,active,inactive,active,inactive,active,active,active,,,
CCCCCCCCCCC=O,inactive,inactive,inactive,inactive,inactive,inactive,inactive,inactive,,inactive,,,
O=C1CCCCCCCCCCCCCCO1,inactive,inactive,inactive,inactive,inactive,inactive,active,inactive,inactive,inactive,,,
CC12C=CCC1C1CCC3=CC(=O)CCC3(C)C1CC2 (stereo unspecified),inactive,inactive,inactive,inactive,inactive,inactive,inactive,inactive,inactive,inactive,,,
CCCCCCC=O,,,inactive,,,,,,,,,,
CCCCCCCCC=O,,,inactive,,,,,,inactive,,,,
C=CCc1ccc(OC(C)=O)c(OC)c1,inactive,inactive,inactive,inactive,inactive,active,active,inactive,inactive,inactive,,,

# Pulled one by one from the list above:
SMILES,odorant receptor agonist call (OR2H2),odorant receptor agonist call (OR2J1),odorant receptor agonist call (OR2J2 (Homo sapiens)),odorant receptor agonist call (OR2J2 [1]),odorant receptor agonist call (OR2J2 [2]),odorant receptor agonist call (OR2J2 [3]),odorant receptor agonist call (OR2J3 (Homo sapiens)),odorant receptor agonist call (OR2K2 (Homo sapiens)),odorant receptor agonist call (OR2L13 (Homo sapiens)),odorant receptor agonist call (OR2L2 (Homo sapiens)),odorant receptor agonist call (OR2J3 [4]),odorant receptor agonist call (OR2J3 [5]),odorant receptor agonist call (OR2J3 [6])
O=C1CCCCCCCCCCCCCCO1,inactive,inactive,inactive,inactive,inactive,inactive,active,inactive,inactive,inactive,,,
C=CCc1ccc(OC(C)=O)c(OC)c1,inactive,inactive,inactive,inactive,inactive,active,active,inactive,inactive,inactive,,,

# Going on with the list:

SMILES,odorant receptor agonist call (OR2H2),odorant receptor agonist call (OR2J1),odorant receptor agonist call (OR2J2 (Homo sapiens)),odorant receptor agonist call (OR2J2 [1]),odorant receptor agonist call (OR2J2 [2]),odorant receptor agonist call (OR2J2 [3]),odorant receptor agonist call (OR2J3 (Homo sapiens)),odorant receptor agonist call (OR2K2 (Homo sapiens)),odorant receptor agonist call (OR2L13 (Homo sapiens)),odorant receptor agonist call (OR2L2 (Homo sapiens)),odorant receptor agonist call (OR2J3 [4]),odorant receptor agonist call (OR2J3 [5]),odorant receptor agonist call (OR2J3 [6])
CCCCCCCC=O,inactive,inactive,inactive,inactive,inactive,inactive,active,inactive,inactive,inactive,,,
CCCCCC(C)=O,inactive,inactive,inactive,inactive,inactive,inactive,,inactive,inactive,inactive,,,
COC(=O)c1ccccc1O,inactive,inactive,inactive,inactive,inactive,inactive,inactive,inactive,inactive,inactive,,,
c1cnccn1,inactive,inactive,inactive,inactive,inactive,inactive,active,inactive,inactive,inactive,,,
O=C1CCCCC1,inactive,inactive,inactive,inactive,inactive,inactive,,inactive,inactive,inactive,,,
C=CCc1ccc(O)c(OC)c1,,,,,,,,,inactive,,,,
CC1CCC(C(C)C)C(O)C1 (stereo unspecified),inactive,inactive,inactive,inactive,inactive,inactive,active,inactive,active,inactive,,,
CCCCO,inactive,inactive,inactive,inactive,inactive,inactive,active,inactive,inactive,inactive,,,
CC1=NC(C)SC1C (stereo unspecified),inactive,inactive,inactive,inactive,inactive,inactive,,inactive,inactive,inactive,,,
O=CCc1ccccc1,inactive,inactive,active,active,active,active,active,inactive,inactive,inactive,,,
CCCCCCCCOC(C)=O,inactive,inactive,inactive,inactive,inactive,inactive,active,inactive,inactive,inactive,,,
C=C(C)C1CCC2=CC(=O)CC(C)C2(C)C1 (stereo unspecified),,,,,,,inactive,,,,,,
CCCCCC(=O)O,inactive,inactive,inactive,inactive,inactive,inactive,inactive,inactive,,inactive,,,
CC(C)(O)CCCC1=CCC(C=O)CC1 (stereo unspecified),,,inactive,,,,inactive,,inactive,,,,
COC(=O)c1ccccc1,active,inactive,inactive,inactive,active,inactive,,inactive,inactive,inactive,,,
